Results: publication PMC3265533
These are yes or no findings as the source states them, for the method shown. Binding seen in cells or lysates may run through a third protein. Some results given as binding are weak or reduced against the parent protein; the word gives no strength.

By UniProt entry, the sequences of proteins in these tests, tags left out.
UniProt P13051: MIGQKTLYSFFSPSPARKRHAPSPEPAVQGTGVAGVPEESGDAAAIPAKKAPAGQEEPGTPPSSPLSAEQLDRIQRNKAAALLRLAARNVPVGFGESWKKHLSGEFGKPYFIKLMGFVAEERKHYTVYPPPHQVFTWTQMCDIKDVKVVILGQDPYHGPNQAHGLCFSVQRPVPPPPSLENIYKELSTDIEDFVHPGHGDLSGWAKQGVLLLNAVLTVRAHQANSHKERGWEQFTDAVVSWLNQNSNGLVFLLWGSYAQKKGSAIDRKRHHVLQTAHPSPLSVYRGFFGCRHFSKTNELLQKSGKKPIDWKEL
UniProt Q16531: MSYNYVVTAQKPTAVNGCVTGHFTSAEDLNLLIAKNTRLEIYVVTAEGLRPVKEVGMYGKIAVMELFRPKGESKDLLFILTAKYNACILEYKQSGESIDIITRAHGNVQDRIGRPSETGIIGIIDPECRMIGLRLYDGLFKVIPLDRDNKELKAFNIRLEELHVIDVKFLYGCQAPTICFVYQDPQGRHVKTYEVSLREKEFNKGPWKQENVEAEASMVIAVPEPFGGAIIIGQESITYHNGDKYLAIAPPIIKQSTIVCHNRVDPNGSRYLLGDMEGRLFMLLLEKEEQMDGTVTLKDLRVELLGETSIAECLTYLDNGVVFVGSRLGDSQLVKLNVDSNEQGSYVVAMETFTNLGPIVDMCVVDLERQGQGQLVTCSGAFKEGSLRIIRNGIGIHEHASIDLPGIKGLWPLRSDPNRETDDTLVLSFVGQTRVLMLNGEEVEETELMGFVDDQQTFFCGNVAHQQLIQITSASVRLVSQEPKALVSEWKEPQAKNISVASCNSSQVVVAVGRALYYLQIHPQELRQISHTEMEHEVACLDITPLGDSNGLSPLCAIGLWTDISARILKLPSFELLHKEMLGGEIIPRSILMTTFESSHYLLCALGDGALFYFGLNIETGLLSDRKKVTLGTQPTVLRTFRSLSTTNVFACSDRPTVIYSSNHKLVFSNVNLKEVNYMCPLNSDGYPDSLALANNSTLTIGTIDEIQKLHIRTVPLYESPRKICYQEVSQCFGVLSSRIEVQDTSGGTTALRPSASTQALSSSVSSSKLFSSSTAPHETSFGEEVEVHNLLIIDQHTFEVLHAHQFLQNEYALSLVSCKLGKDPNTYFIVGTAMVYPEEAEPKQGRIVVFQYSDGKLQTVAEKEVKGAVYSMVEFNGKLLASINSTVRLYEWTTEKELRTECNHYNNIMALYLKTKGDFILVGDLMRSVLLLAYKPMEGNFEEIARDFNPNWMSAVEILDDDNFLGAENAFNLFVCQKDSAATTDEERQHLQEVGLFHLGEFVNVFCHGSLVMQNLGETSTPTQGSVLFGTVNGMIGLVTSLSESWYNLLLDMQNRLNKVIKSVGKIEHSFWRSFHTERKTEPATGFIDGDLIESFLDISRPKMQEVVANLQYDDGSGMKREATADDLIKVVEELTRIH

Biological target: UNG2–2HA (uracil DNA glycosylase 2 with two HA epitope tags at the carboxy-terminus) (UniProt P13051)
Assay: co-IP; 293T HEK cells transfected with UNG2–2HA, with empty vector or HIV1 FLAG–Vpr; MG132 for 8 hours before harvest; lysed in ELB buffer; anti-HA agarose beads; eluted with HA peptide; immunoblot for DCAF1, DDB1, HA and FLAG; control: UNG2–myc

With “DDB1 (endogenous) (from UniProt Q16531 1-1140)” the binding was “binds”.
